Measurements: paper PMC8962522, “Direct interaction of TrkA/CD44v3 is essential for NGF-promoted aggressiveness of breast cancer cells” (Journal of Experimental & Clinical Cancer Research : CR, 2022)
Results are given in words; binding and its absence hold for the method and conditions named.

Chains of the proteins cited; added tags and fusions are not shown. Residues count along the entry.
UniProt P04629, residues 34-423: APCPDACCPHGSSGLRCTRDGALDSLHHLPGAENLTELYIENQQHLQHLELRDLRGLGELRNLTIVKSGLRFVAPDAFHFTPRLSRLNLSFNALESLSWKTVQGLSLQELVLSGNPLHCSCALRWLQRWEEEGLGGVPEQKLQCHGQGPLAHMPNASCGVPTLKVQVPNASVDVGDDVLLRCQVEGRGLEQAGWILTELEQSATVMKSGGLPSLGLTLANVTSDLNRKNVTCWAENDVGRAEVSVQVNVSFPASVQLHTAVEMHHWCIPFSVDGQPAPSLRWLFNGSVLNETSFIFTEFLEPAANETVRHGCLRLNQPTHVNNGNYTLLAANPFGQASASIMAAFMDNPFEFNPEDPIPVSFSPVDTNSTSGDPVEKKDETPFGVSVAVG

Biological target: TrkA-His tagged extracellular domain protein (Ala 34-Gly423) (UniProt P04629)
Assay: MST; binding check: peptides and TrkA-His labelled with RED-Tris-NTA; PBS-T; high MST power, 100% LED; both purified

| binding | Binder |
| --- | --- |
| no binding | WEPNEENEDE [CD44v3 mimetic peptide 2] |
| no binding | KSTSSNTISAG [CD44v3 mimetic peptide 1] |
